According to PubChem BioAssay AID2685 (National Center for Advancing Translational Sciences (NCATS), 2010):
Some of the results follow. The main result of the screen is listed elsewhere. These columns were measured beside it and carry no call. Most of these compounds were active or inconclusive in the main read-out, so they are no random draw. Words in brackets tell the shape of the fitted curve; partial curves, single points and poor fits give uncertain potencies.

Experiment: qHTS Assay for Lipid Storage Modulators in Drosophila S3 Cells;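 for cell number change: cells counted by Cell Tracker Red CMTPX staining in the red channel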
Conditions: BODIPY lipid droplet fluorescence, 18-24 h; for cell number change: measured here: cell count max response, cells fed with added oleic acid
Procedure, shortened: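 Drosophila S3 cells got compounds at several concentrations plus oleic acid (400 uM solution). Laser-scanning cytometry with 488 nm excitation read lipid droplets at 500-530 nm and cells at 575-640 nm. Percent activity was relative to 20 uM Triacsin C.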

[1] = measured here: cell number channel AC50, cells fed with added oleic acid
[2] = measured here: lipid fluorescence (Fed channel) AC50, cells fed with added oleic acid

SMILES | cell number change | AC50 [1] | AC50 [2]
CCOc1ccc(-n2c(SCC(=O)Nc3ccc(Br)cc3)nc3n[nH]c(C)c3c2=N)cc1 | -67% | 18.4 µM [falling, single point] | 20.6 µM [falling, single point]
C=CCOc1ccc(/C(CC)=N/O)c(OC)c1 | 5.08% | – | 16.4 µM [rising, single point]
CCn1ccnc1CN1CCc2c([nH]c3ccccc23)C1C1CCCCC1 (centres undefined) | -35.8% | 29.1 µM [falling, single point] | 18.4 µM [falling, single point]
O=C(NCc1ccc(Cl)cc1)C(=O)NCC1OCCN1S(=O)(=O)c1ccc2c(c1)OCCO2 (centres undefined) | 28.1% | – | 1.64 µM [rising, partial curve]
Cc1ccc(S(=O)(=O)NCc2nc3ccccc3[nH]2)cc1 | 9.73% | – | 0.0058 µM [rising, full curve, poor fit]
O=C1C2CCCN2C(c2ccc(F)c(F)c2)N1c1cccc(Cl)c1 (centres undefined) | 24.3% | – | –
COc1ccc(NCC(=O)Nc2ccc(C#N)cc2)cc1Cl | -17.7% | 1.3 µM [rising, partial curve] | 0.58 µM [rising, single point]
CC(=O)Nc1ccc(NC(=O)CSc2nnc(NC(=O)c3cccc(F)c3)s2)cc1 | 1.89% | – | 0.13 µM [rising, full curve, poor fit]
CCC(CC)NC(=O)c1cccc([N+](=O)[O-])c1C | – | 0.58 µM [falling, single point] | –
O=C(NCc1ccncc1)c1ccc(NS(=O)(=O)c2ccc(F)cc2)cc1 | -9.47% | – | 3.26 µM [falling, partial curve, poor fit]
CCOC(=O)C1(Cc2cccc(F)c2)CCN(C(=O)C2CCC2)CC1 | 10.5% | – | 6.51 µM [rising, partial curve]
CCOC(=O)c1c(C)c(C(=O)NCCCOC)c(C)n1C | – | – | 2.91 µM [rising, single point]
CCOC(=O)c1c(NCc2ccccc2)n[nH]c1C | -5.55% | – | 0.731 µM [rising, single point]
COc1ccc(C(=O)NC(=O)COC(=O)C2COc3ccccc3O2)cc1 (centres undefined) | -56.3% | 9.2 µM [falling, partial curve] | 14.6 µM [falling, partial curve]
CCCn1nnc(NC(=S)NC(=O)Cc2ccccc2)n1 | – | 0.13 µM [rising, full curve, poor fit] | 0.517 µM [rising, single point]
CC(C)N1C(=S)SC(C)(C)C1NO (centres undefined) | -20.1% | – | 1.3 µM [falling, full curve, poor fit]
COc1ccc(-c2cnn3c4c(c(C)nc23)CCN4C2CCCC2)cc1OC | 60.4% | 10.3 µM [rising, partial curve, poor fit] | 14.6 µM [rising, partial curve]
O=C(CSc1nc(-c2ccccc2)cc(C(F)(F)F)n1)NCc1cccs1 | -6.97% | – | 0.326 µM [falling, full curve, poor fit]

SMILES | cell number change | AC50 [1] | AC50 [2]
Cc1ccc(NC(=O)C2=C(c3ccccc3)S(=O)(=O)CCS2(=O)=O)cc1 | -156% | 7.31 µM [falling, partial curve] | 6.51 µM [falling, partial curve]
Oc1ccccc1/C=N/n1cnnc1 | -31.9% | 0.651 µM [falling, full curve] | 1.03 µM [falling, full curve]
O=C(CN1C(=O)c2ccccc2C1=O)NCc1ccc(C(=O)O)cc1 | 12.6% | – | –
COCCn1c(SCC(=O)N2CCCC2)nnc1-c1ccco1 | 9.21% | – | –
Cc1cccc(CCNC(=O)C2CCCN(S(=O)(=O)c3cnc[nH]3)C2)c1 (centres undefined) | 20.3% | – | 3.66 µM [falling, single point]
Cc1cccc(NS(=O)(=O)c2ccc(C(=O)NCC3CCCO3)cc2)c1C (centres undefined) | -4.53% | – | 2.91 µM [rising, partial curve, poor fit]
COc1ccc(N2Cc3cccc(C(=O)N4CCN(C(=O)c5ccco5)CC4)c3C2=O)cc1 | -1.01% | – | 0.206 µM [falling, partial curve, poor fit]
Cc1cc2cc(CN(CC3CCCO3)C(=O)c3cnccn3)c(=O)[nH]c2cc1C (centres undefined) | – | – | 2.31 µM [rising, single point]
CCCCn1c(N)c(N(CCC(C)C)C(=O)c2ccc(-c3ccc([N+](=O)[O-])cc3)o2)c(=O)[nH]c1=O | -31.7% | 10.3 µM [falling, partial curve, poor fit] | 10.3 µM [falling, partial curve, poor fit]
CCOc1c(Cl)cc(C(=O)NCCN2CCCCC2)cc1Cl | 1.48% | – | 6.51 µM [rising, partial curve, poor fit]
Cc1nnc(SCC(=O)N(C)C2CCCCC2)s1 | -15.2% | – | 0.103 µM [falling, full curve, poor fit]
CC(C)Cn1nc(NC(=O)C(C)(C)C)c2cc3ccccc3nc21 | -3.26% | – | 14.6 µM [rising, single point]
Cc1nn(C)c(C(=O)Nc2c(C)nn(Cc3c(F)c(F)c(F)c(F)c3F)c2C)c1Br | -20.1% | – | 6.51 µM [rising, single point]
COc1ccc(N2C(=O)c3cccc4c(N(C)CCO)ccc(c34)C2=O)cc1 | -8.78% | – | 29.1 µM [falling, single point]
COc1ccccc1C(=O)Nc1ccc(N2CCN(Cc3ccccc3)CC2)cc1 | 17.5% | – | 3.66 µM [rising, single point]
CCCCCn1c(SCCCC)nc2c1c(=O)[nH]c(=O)n2C | 5.03% | – | –
O=c1c2ccccc2ncn1Cc1nc2ccccc2s1 | -14% | 0.103 µM [falling, full curve, poor fit] | 6.51 µM [falling, single point]
CCN(c1cccc(C)c1)S(=O)(=O)c1cc2c3c(c1)CCC(=O)N3CCC2 | 40.4% | 1.84 µM [rising, full curve] | –

Three entries picked at random from the list so far:
SMILES | cell number change | AC50 [1] | AC50 [2]
O=c1c2ccccc2ncn1Cc1nc2ccccc2s1 | -14% | 0.103 µM [falling, full curve, poor fit] | 6.51 µM [falling, single point]
O=C(CN1C(=O)c2ccccc2C1=O)NCc1ccc(C(=O)O)cc1 | 12.6% | – | –
Cc1cccc(NS(=O)(=O)c2ccc(C(=O)NCC3CCCO3)cc2)c1C (centres undefined) | -4.53% | – | 2.91 µM [rising, partial curve, poor fit]
